Laboratory results taken from PubChem BioAssay AID2685 (National Center for Advancing Translational Sciences (NCATS), 2010).
Values joined by “and” are separate entries in the source; they are usually repeats but may differ in a detail not shown here. Identical values can stand only once. Out of some 320,000 compounds screened, about 2,100 (0.66%) were called active. The inconclusive results got no clear call from the source; some entries with a clear call stand among them for comparison. The call rests on the fitted dose curve; in most records, active means well fitted inhibition curve with a large enough effect in the signal ratio, with a control signal flat (not every such curve was filed as active); inconclusive means small, poorly fitted or top-dose-only effect, or effect the other way, or a change in a side signal; inactive means flat fitted curve, though single readings scatter; the % refers to the signal ratio. Potencies beside an inconclusive call are fits to weak or partial responses and may not hold up.

Assay: qHTS Assay for Lipid Storage Modulators in Drosophila S3 Cells
Conditions: BODIPY lipid droplet fluorescence, 18-24 h, cells fed with added oleic acid; lipid storage change, negative = inhibition: at 46.1 µM (top of the series) unless noted
Method in brief: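 Laser-scanning cytometry quantifies lipid droplet accumulation (500–530 nm total intensity; droplet/cell object ratio) in oleic acid-fed (400 uM added) Drosophila S3 cells treated with a concentration series. 20 uM Triacsin C defined 100% inhibition.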
On the % scale 0 is the no-effect control and ±100 the full control effect; potency means the concentration at half of the fitted maximal effect.

Compound | lipid storage change, negative = inhibition | Potency
Cc1cccc(N2C(=O)NC(=O)/C(=C\c3cccn3-c3ccc(Cl)cc3)C2=O)c1 | inconclusive: -24.9% | 
C1=C(c2ccccc2)CCNC1 | inconclusive: 15.7% | 
CCOC(=O)C1CN(C)CCC1=O (stereo not given) | inconclusive: -22.6% | 
CC1=CC(=O)C2=C(C)C[C@H](O)[C@@H]3[C@H](OC(=O)[C@H]3C)[C@@H]12 | inconclusive: 21.5% | 
COc1cccc(N=Nc2c(O)[nH]c(=S)[nH]c2=O)c1 | inconclusive: -17.3% | 
C1CCC(NC2CCCCC2)CC1 | inconclusive: 16.7% | 
COC(=O)c1ccccc1OP(=O)(c1cccc([N+](=O)[O-])c1)c1cccc([N+](=O)[O-])c1 | inconclusive: -1.37% | 
CC(C)N1C(=O)NC(=O)C2(Cc3cc([N+](=O)[O-])ccc3N(C)C2c2ccccc2)C1=O (stereo not given) |  | inconclusive: 23.1 µM [falling, single point]
Cc1nc2ccccc2c(=O)n1-c1ccccc1[N+](=O)[O-] | inconclusive: -22.2% | 
CCOP(=O)(C#CC(C)(C)C)C(C)(O)c1ccccc1 (stereo not given) |  | inconclusive: 6.51 µM [falling, single point]
COC(=O)C1=C(c2ccc(F)cc2OCc2ccccc2)C[C@@H]2CC[C@H]1N2C(=O)NCc1ccc(F)cc1 | inconclusive: -7.07% | 
O=P(C(Cl)Cl)(N1CCOCC1)N1CCOCC1 | inactive | 
CC(C)C1(C)N=C(c2ncccc2C(=O)O)NC1=O (stereo not given) | inconclusive: -40.8% | 
COc1ccc(C(=O)C2CCCN(Cc3ccc(F)cc3F)C2)cc1F (stereo not given) | inconclusive: 23.1% | 
C=CCN1C(=O)/C(=C/c2ccc(N3CCOCC3)o2)C(=O)NC1=S | inconclusive: -13.2% | 
O=C1C2CCN(CC2)C1Cc1ccccc1O (stereo not given) | inconclusive: 6.76% | 
CN(C)C(=O)Oc1ccc(-c2nnco2)cc1 | inconclusive: -51.5% | 
CCC(=NCCCO)c1c(O)n(-c2ccc(OC)cc2)c(=O)[nH]c1=O | inconclusive: -9.17% | 
COc1ccc(-c2nc3ccccc3c(=O)n2-c2ccc(OC)cc2)cc1 | inconclusive: -24.5% | 
O=c1[nH]c(=O)n(-c2cccc3ccccc23)c(O)c1C=NCCCn1ccnc1 | inconclusive: -3.68% | 
c1ccc(C2CC3CC4(CCCC4)N2O3)cc1 (stereo not given) |  | inconclusive: 4.11 µM [falling, full curve, poor fit]
NCC(CC(=O)O)C1CCCCC1 (stereo not given) | inconclusive: -21.8% | 
CCCNS(=O)(=O)c1ccc(OCC(=O)N2CCN(Cc3ccccc3)CC2)cc1 |  | inconclusive: 3.26 µM [activator, single point]
COc1ccc(CCn2c(O)c(C=NCCCN(C)C)c(=O)[nH]c2=O)cc1OC | inconclusive: -32.4% | 
CCc1cc(=O)oc2c(C)c(OCC(=O)N3C[C@H]4C[C@@H](C3)c3cccc(=O)n3C4)ccc12 | inconclusive: 36% | 

Compound | lipid storage change, negative = inhibition | Potency
O=C1NC(=O)C(=Cc2ccccc2OCCOc2ccc([N+](=O)[O-])cc2)C(=O)N1 |  | inconclusive: 0.731 µM [rising, partial curve, poor fit]
O=C(NC(=S)N1C[C@H]2C[C@H](C1)c1cccc(=O)n1C2)c1ccc(Cl)cc1 | inconclusive: 155% | 
CC1(C)C2SCC(=O)N2CCN1CC(=O)NN (stereo not given) | inconclusive: 15.6% | 
COC(=O)C1=C(c2ccc(-c3ccccc3)c(F)c2)C[C@@H]2CC[C@H]1N2C(=O)NCCNC(C)=O | inconclusive: -2.61% | 
COC(=O)C1=C(c2ccc(F)cc2F)C[C@@H]2CC[C@H]1N2C(=O)NCCO |  | inconclusive: 1.64 µM [activator, partial curve]
C=CCOC(=O)C1=C(C)OC(N)=C(C#N)C12C(=O)N(CN1CCOCC1)c1ccccc12 (stereo not given) | inconclusive: 58.6% | 
N/C(=N/[N+](=O)[O-])N1CCN(C(=O)Oc2ccc([N+](=O)[O-])cc2)CC1 | inconclusive: -10.1% | 
CCOc1ccc(Cc2c(O)[nH]c(=O)[nH]c2=O)cc1 | inconclusive: -47.8% | 
CCC(COC(=O)c1cc(OC)c(OC)c(OC)c1)(c1ccccc1)N(C)C (stereo not given) | inconclusive: 20.6% and inconclusive: -4.94% | 
COc1cc2[nH]c(=O)n(-c3ccc(C)cc3)c(=O)c2cc1OC | inconclusive: 8.73% | 
CCn1ccnc1CN1CCCC(C(=O)c2cc(C)c(OC)c(C)c2)C1 (stereo not given) | inconclusive: 14.3% | 
Cn1c(=O)oc2cc(S(=O)(=O)N3CCCC(C(=O)Nc4nccs4)C3)ccc21 (stereo not given) |  | inconclusive: 8.2 µM [activator, partial curve, poor fit]
COc1ccccc1OCC(=O)N1CCCC(N(C)Cc2ccccc2)C1 (stereo not given) | inconclusive: -5.68% | 
CCN(CC)C(=O)c1ccc(NC(=O)COc2ccc(-c3nn(C)c(=O)c4ccccc34)cc2)cc1 | inactive | 
COc1cc(/C=C2\C(=O)NC(=O)N(c3ccc(C)cc3)C2=O)cc(OC)c1O | inactive | 
CC(=O)Nc1ccccc1C(=O)C(=O)Nc1cccc(C(=O)N2CCC3(CC2)OCCO3)c1 |  | inconclusive: 0.731 µM [falling, single point]
CC(=O)c1cn(Cc2ccc(F)cc2)c2ccccc12 |  | inconclusive: 25.9 µM [activator, partial curve]
Cc1ccc(NC2=NCCCS2)cc1Cl |  | inconclusive: 6.51 µM [falling, single point]
CCOc1cccc(N2C(=O)CC(=O)NC2=O)c1 | inconclusive: -138% | 
Cn1cc(C(=O)Cc2ccccc2)c2ccccc21 | inconclusive: 22.2% | 
COc1ccc(Cl)cc1C(=O)C1CCCN(Cc2cnc(C)s2)C1 (stereo not given) | inconclusive: -6.81% | 
C=CCn1c(O)c(C=NCCN(C)C)c(=O)[nH]c1=O |  | inconclusive: 29.1 µM [activator, single point]
COc1ccccc1OCC#CCN1CCCC1 | inconclusive: -33.6% | 
COc1cccc(N=Cc2c(O)n(Cc3ccco3)c(=O)[nH]c2=O)c1 | inconclusive: 12.6% | 
CCC1(CC)C(=O)N(C)C(=O)NC1=NC |  | inconclusive: 2.59 µM [activator, full curve]
